Results taken from publication PMC8836073, “Activatable Peptides for Rapid and Simple Visualization of Protease Activity Secreted in Living Cells” (International Journal of Molecular Sciences, 2022).

Test system: HT-1080 cells (MMP2-positive)
Test: Live cell confocal imaging of peptide uptake in HT-1080 cells
Type: cell-based, Human
Description: For live cell imaging, HT-1080 or HT-29 cells were cultured in Lab-Tek II chambered coverglass (Thermo Fisher Scientific) containers in RPMI-1640 media containing 10% FBS and 1× P/S at 37 °C. When the cells were 80% confluent, the culture medium was rinsed and changed to a fresh serum-free medium, followed by the addition of peptide probes at a final concentration of 10 μM. For organelle images, nuclei and lysosomes (or late endosomes) were stained with NucBlue (1 drop) and Lysotracker Red (50 nM) in serum-free media, respectively, and incubated in the dark for 10 min. After washing of the cells and removal of the chamber, cells adhering to the coverglass were subjected to bright-field or fluorescent images using a confocal microscope (Nikon C2si+, Japan). The excitation/emission wavelengths of NucBlue, FITC, and Lysotracker Red were 352/454 nm, 488/525 nm, and 577/590 nm, respectively. Typically, images were collected using a pixel dwell time of 10.3 μs on a 512 × 512 pixel image with 1 mW light power at the objective through a pinhole (60 μm) to reach the PMT. The frame rate was rather slow; the frame rate was about 0.255 FPS (frame per second) for a 512 × 512 frame (i.e., 1 frame per 3.9 s). To gain time-lapse images for FITC in living cells, one video file was constructed with images taken every 20 s for 30 min. Imaging analysis was performed using the NIS-Elements microscope imaging software (Ver 2.0).

[1] = HT-1080, 10 μM Pep1, serum-free media, 37 °C, imaging for 24 h (Figure S1)

Substance: EEEEGGIPVSLRSGGGRRRRK-FITC [Pep1]
- fluorescence intensity in continuous live cell imaging, after 12 h [1]: decreased
- fluorescence intensity in continuous live cell imaging, after 24 h [1]: completely lost
- intracellular localization (living HT-1080, 30 min after Pep1 treatment, NucBlue and Lysotracker Red co-staining): around the cell membrane or in the cytosol
